No constants are given. Whether binding was seen depends on the method and setting. Some entries that bind do so weakly or less than the wild type.
Assays:
[1] = target: T1, cynomolgus PD-L1 on the cell surface (cynomolgus, UniProt G7PSE7 19-290); assay: FACS on cells expressing cynomolgus PD-L1
T1 construct: also called cell surface cynomolgus PD-L1

[2] = target: T1, cynomolgus PD-L1 on the cell surface; assay: FACS on cells expressing cynomolgus PD-L1, goat anti-human IgG Fc FITC
Protocol: Cross-reactivity was measured by FACS. […] Testing antibodies were diluted in wash buffer (1><PBS/1% BSA) and incubated with cells at 4° C. for 1 hour. After washing, the secondary antibody goat anti-human IgG Fc FITC (Jackson ImmunoResearch Lab) was added and incubated at 4° C. in the dark for 1 hour. The cells were then washed once and resuspended in 1><PBS/1% BSA, and analyzed by flow cytometry (BD).

binding [1]: binds
binding [2]: binds
B1: W3152-r11.135.5-zAb17-m6-uIgG4L (antibody, V domains shown)
VH: QVQLQESGPGLVKPSETLSLTCTVSGFSLTENSVSWIRQPPGKGLEWIGAVWSSGSTDYNSALKSRVTISRDTSKNQFSLKLSSVTAADTAVYYCTRSTYSNDFYYYFDYWGQGTMVTVSS
VL: SYELTQPPSVSVSPGQTASITCSGSELPKRYAYWYQQKPGQSIVRVIYKDSERPSGISERFSGSSSGNTATLTISGTQAMDEADYYCSSTYGDRKLPIFGGGTKLTVLG
notes: also called W3152-r11.135.5-zAb17-m6-IgG4L

From patent US20220332827A1 (WUXI BIOLOGICS IRELAND, published 2022)
